Source: patent US8980951B2, “Sesquiterpenes for antifungal applications” (Kansas State University Research Foundation, priority 2011, dated 2015)
Several values for one entry are separate records, joined by “and”; a condition that tells them apart may be missing. Equal entries are not always repeated. Some entries share one result that the patent states for a list of compounds.

Tests used:
[1] = tested on: human intestine epithelial cell line (Int-407); assay: Cytotoxicity, Promega's cell viability assay kit; format: cell-based; details: Int-407 cells
Experimental: Yeast cells or conidia (for filamentous fungi) were suspended in RPMI 1640 (with 50 mM glucose) medium to a final concentration of 10^4 cfu/ml and distributed in a 96-well microplate to a total volume of 100 μl/well. Albicanol and drimenol were added into the wells and serial dilutions (broad or narrow range) with replicates were made, and wells with or without DMSO served as controls. Plates were incubated without shaking at 37° C. for 24-48 h for yeasts and 30° C. for 4 days for filamentous fungi (Aspergillus and Trichophyton sp). The MIC was defined as the lowest compound concentration at which no growth occurred, as determined visually and by OD600 measurement (or microscopically, inverted). As a positive control, amphotericin B (AMB) (1 μg/ml) was also included in parallel. Cytotoxicity of albicanol and drimenol was determined using human intestinal epithelial cell lines (Int-407) by utilizing cell viability assay kit of Promega.

[2] = tested on: monkey kidney cells; assay: Tolerance of monkey kidney cells; format: cell-based

| SMILES | tolerated concentration [1] | tolerated concentration [2] |
| --- | --- | --- |
| CC1=CC[C@H]2C(C)(C)CCC[C@]2(C)[C@H]1CO [drimenol, (−)-drimenol] | up to 375 μM and ≤ 75 μg/ml | up to 375 μM and ≤ 75 μg/ml |
| C=C1CC[C@H]2C(C)(C)CCC[C@]2(C)[C@H]1CO [Albicanol, (+)-albicanol] | up to 375 μM and ≤ 75 μg/ml | up to 375 μM and ≤ 75 μg/ml |
